According to the supplement of paper PMC6411743:
± gives the standard deviation of the averaged measurements. This is a selection; strong and weak results do not stand in their true shares.

Amino acid sequences for entries named in this document (tags omitted). A change or cut given only in a name is not applied to a line headed by its entry.
UniProt Q6JBY9, whole entry: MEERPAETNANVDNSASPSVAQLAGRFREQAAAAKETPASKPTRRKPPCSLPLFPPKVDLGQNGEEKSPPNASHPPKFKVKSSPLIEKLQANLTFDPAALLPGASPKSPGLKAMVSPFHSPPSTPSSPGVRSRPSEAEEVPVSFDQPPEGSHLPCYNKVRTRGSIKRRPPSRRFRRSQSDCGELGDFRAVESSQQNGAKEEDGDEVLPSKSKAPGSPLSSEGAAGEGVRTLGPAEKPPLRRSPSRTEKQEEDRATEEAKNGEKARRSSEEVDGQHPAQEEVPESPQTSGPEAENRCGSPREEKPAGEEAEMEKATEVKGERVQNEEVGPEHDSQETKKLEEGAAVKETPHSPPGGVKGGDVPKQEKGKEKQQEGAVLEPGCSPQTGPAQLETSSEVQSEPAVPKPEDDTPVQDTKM
UniProt Q5VV52: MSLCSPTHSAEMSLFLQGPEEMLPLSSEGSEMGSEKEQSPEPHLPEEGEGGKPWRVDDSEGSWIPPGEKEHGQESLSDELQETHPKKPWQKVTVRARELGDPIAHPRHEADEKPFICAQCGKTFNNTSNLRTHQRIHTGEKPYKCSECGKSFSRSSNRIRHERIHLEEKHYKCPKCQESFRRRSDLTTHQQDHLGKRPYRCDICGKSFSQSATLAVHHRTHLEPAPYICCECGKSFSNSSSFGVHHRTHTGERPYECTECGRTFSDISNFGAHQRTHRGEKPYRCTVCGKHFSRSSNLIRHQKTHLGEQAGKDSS
UniProt Q6DKJ4: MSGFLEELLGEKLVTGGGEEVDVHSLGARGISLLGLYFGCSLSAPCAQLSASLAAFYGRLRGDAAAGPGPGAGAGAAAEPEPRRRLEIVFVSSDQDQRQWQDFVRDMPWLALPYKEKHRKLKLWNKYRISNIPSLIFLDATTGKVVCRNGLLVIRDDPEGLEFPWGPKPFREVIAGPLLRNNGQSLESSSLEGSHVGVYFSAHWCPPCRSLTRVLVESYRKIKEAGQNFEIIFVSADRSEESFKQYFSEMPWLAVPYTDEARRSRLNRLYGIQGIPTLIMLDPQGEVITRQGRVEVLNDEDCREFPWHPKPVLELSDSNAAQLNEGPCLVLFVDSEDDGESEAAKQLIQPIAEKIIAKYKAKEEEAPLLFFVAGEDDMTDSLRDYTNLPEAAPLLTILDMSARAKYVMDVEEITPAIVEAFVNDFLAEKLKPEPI
UniProt Q5TC82: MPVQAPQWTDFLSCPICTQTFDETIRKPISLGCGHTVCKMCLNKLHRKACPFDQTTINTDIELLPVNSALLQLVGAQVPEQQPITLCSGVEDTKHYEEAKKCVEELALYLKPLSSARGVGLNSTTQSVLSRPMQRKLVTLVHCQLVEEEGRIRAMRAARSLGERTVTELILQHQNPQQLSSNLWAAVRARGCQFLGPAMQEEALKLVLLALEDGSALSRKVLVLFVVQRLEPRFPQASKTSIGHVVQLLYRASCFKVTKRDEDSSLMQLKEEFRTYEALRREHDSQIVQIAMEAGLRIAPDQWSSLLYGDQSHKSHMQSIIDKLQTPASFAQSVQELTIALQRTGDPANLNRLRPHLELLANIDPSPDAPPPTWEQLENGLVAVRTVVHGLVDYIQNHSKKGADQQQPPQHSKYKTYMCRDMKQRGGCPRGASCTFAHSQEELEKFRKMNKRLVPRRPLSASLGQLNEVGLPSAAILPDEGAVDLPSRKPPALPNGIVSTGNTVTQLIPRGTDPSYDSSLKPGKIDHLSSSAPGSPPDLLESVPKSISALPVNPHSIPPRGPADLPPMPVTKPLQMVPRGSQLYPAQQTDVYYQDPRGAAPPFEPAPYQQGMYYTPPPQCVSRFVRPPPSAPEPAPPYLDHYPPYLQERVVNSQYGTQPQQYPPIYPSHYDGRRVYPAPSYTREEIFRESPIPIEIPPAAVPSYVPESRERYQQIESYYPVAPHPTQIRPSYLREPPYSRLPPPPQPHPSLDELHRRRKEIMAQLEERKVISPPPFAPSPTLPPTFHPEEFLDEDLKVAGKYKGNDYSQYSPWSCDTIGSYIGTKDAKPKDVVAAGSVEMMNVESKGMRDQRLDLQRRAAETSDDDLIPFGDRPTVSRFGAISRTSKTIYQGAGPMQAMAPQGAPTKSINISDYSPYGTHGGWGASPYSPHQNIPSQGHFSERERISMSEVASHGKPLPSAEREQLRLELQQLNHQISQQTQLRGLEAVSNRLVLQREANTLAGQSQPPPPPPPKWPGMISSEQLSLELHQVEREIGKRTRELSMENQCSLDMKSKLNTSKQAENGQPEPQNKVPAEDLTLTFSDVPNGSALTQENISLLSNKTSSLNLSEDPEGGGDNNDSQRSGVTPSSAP
UniProt Q5JTD0: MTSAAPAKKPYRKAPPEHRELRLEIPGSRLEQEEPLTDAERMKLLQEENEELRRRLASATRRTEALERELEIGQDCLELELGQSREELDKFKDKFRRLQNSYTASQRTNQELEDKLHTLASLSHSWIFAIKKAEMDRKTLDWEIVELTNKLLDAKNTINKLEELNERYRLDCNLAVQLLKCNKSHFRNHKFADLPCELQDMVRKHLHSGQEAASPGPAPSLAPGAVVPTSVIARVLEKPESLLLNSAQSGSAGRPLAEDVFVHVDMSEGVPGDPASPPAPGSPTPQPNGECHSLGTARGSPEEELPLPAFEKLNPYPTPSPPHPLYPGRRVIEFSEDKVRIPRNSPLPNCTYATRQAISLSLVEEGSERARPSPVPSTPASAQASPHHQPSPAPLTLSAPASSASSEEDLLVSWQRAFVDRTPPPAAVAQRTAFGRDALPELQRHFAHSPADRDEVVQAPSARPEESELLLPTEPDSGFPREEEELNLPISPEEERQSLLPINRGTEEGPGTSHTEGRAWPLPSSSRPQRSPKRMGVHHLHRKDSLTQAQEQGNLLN
UniProt Q5BJD5: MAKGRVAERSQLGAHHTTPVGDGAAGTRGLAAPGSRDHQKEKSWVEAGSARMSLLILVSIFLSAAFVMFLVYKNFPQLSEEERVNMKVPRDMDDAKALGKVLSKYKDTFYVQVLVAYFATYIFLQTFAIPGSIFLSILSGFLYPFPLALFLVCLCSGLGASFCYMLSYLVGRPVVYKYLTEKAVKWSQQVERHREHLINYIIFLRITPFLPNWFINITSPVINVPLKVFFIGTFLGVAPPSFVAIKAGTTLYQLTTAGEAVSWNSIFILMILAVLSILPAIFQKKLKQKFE
UniProt Q6IQ49: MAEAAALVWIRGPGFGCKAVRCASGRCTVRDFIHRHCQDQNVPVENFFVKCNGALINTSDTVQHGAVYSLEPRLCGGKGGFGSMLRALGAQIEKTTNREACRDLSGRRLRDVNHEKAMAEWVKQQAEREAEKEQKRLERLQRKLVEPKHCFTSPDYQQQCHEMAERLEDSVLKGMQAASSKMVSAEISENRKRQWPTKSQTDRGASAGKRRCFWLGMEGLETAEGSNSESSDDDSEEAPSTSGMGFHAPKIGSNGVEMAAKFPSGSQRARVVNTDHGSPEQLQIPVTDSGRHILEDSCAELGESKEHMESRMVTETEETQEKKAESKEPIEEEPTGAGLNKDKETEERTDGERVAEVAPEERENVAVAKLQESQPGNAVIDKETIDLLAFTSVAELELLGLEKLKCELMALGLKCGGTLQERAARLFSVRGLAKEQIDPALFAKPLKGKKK
UniProt Q9H6K1: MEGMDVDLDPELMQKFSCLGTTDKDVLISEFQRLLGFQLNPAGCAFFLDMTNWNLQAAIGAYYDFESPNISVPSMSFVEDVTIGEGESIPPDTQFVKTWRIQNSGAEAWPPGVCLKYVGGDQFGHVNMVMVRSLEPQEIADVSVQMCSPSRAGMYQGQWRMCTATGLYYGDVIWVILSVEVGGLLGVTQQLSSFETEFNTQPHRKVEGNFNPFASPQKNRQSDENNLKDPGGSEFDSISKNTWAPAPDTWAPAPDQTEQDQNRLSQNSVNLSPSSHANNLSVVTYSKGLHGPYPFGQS
UniProt Q6PD74: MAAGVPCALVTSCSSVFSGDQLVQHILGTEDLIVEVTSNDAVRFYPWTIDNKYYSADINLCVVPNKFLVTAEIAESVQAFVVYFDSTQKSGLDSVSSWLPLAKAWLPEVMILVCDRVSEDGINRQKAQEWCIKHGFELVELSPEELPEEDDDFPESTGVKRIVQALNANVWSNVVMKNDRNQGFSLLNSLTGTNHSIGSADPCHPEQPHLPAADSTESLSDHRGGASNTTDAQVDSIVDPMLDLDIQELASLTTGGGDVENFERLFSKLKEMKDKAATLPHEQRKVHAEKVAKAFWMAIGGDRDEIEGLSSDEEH
UniProt Q5TDH0: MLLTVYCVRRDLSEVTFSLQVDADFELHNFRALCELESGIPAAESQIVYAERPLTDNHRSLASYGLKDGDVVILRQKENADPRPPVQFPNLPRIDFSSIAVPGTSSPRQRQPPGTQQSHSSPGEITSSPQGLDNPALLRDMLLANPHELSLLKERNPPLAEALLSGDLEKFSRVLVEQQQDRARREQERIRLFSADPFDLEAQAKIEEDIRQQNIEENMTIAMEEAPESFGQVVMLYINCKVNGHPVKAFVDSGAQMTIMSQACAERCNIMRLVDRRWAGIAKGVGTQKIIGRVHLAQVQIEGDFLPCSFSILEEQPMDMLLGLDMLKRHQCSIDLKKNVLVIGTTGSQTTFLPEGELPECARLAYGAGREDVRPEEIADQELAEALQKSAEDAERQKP
UniProt Q53GQ0: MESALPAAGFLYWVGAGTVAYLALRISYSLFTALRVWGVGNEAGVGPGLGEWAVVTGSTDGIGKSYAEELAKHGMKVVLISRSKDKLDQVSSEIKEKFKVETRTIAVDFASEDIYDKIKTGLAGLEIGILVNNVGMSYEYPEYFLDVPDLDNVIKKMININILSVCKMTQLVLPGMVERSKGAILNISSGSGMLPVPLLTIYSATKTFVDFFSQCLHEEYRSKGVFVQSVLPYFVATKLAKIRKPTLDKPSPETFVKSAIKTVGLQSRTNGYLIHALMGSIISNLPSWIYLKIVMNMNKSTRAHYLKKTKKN
UniProt Q6P2H3: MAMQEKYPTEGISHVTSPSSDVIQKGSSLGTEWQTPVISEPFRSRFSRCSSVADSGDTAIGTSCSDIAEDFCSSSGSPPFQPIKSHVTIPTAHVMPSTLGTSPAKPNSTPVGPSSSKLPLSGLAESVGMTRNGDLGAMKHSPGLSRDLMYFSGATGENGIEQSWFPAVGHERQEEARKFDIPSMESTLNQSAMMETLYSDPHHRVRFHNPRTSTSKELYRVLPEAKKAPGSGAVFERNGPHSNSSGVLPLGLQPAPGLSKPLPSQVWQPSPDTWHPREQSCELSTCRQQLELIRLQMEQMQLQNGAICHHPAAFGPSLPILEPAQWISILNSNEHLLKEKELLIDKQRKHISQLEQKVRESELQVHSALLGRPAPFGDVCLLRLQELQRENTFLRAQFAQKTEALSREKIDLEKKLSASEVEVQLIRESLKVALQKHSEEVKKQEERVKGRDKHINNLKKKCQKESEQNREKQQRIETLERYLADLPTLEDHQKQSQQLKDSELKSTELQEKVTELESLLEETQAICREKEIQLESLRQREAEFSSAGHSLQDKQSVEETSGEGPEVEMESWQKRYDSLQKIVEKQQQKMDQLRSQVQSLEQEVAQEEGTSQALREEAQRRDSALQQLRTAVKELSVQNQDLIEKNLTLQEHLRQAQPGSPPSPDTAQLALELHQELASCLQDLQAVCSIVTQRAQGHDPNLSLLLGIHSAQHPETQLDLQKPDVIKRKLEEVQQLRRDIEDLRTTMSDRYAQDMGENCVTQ
UniProt Q6IAA8, whole entry: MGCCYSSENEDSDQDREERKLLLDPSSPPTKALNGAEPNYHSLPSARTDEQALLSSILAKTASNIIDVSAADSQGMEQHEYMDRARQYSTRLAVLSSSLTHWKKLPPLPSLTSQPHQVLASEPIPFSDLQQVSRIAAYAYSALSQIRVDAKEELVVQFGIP
UniProt Q5VZE5: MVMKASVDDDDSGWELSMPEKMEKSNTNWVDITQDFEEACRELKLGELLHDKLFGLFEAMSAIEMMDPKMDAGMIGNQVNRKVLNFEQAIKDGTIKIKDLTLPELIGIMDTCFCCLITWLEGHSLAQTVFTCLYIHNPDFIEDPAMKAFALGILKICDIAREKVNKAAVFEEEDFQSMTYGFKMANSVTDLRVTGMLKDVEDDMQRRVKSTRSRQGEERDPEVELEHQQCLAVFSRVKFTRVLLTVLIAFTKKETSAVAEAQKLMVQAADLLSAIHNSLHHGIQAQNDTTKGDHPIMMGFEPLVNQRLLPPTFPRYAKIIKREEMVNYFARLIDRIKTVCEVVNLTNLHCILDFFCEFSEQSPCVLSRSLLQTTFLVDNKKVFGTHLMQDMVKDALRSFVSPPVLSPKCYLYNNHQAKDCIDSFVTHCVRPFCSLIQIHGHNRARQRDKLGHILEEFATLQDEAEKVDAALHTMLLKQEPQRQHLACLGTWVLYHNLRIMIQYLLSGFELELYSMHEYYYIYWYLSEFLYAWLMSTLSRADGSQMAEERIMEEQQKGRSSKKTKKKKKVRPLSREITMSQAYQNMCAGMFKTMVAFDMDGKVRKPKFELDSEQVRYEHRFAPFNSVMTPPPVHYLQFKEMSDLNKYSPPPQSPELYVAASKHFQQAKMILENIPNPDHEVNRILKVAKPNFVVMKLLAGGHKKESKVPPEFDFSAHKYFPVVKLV

The targets below were run with Nc1ncnc2c1ncn2[C@@H]1O[C@H](COP(=O)(O)OP(=O)(O)OP(=O)(O)O)[C@@H](O)[C@H]1O [adenosine triphosphate] (assay: NP40-soluble protein abundance relative to vehicle (solubility fold change) (ratio); higher = more soluble protein in presence of ATP). Details: concentration: 4mM.
Outline: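 Each value is a fold change relative to the detergent-processed vehicle, calculated per replicate from vsn-normalised intensities. Jurkat crude lysate received eight concentrations (0.1 to 10 mM) for 10 min at room temperature and 3 min at 37 °C, then was solubilised in 0.8% NP40 with benzonase (60 min, 4 °C). The ultracentrifuged supernatant was TMT-labelled and run by LC-MS/MS in three independent experiments.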

Question: For RCSD1 (UniProt Q6JBY9), which NP40-soluble protein abundance is on record?
Answer: 0.783 ± 0.014

Question: With “Q5VV50 and related entries (UniProt Q5VV52)” as the target, how does the NP40-soluble protein abundance read?
Answer: 1.16 ± 0.037

Question: How did the NP40-soluble protein abundance turn out when UniProt Q6P1J9 was run?
Answer: 0.969 ± 0.034

Question: HABP4 (UniProt Q5JVS0) was tested. Which NP40-soluble protein abundance did it give?
Answer: 1.4 ± 0.1

Question: NXN (UniProt Q6DKJ4) was tested. Which NP40-soluble protein abundance did it give?
Answer: 1.1 ± 0.058

Question: With UniProt Q5TC82 and related entries as the target, how does the NP40-soluble protein abundance read?
Answer: 1.06 ± 0.085

Question: For UniProt Q5JTD0 and related entries, which NP40-soluble protein abundance is on record?
Answer: 0.953 ± 0.038

Question: Which NP40-soluble protein abundance does the source give for TMEM41B (UniProt Q5BJD5) here?
Answer: 0.932 ± 0.042

Question: For “Q5JY65 and related entries (UniProt Q9BZJ0)”, which NP40-soluble protein abundance is on record?
Answer: 1.01 ± 0.025

Question: With UniProt Q5EBL8 and related entries as the target, how does the NP40-soluble protein abundance read?
Answer: 1.13 ± 0.052

Question: UniProt Q6IQ49 and related entries was tested. Which NP40-soluble protein abundance did it give?
Answer: 0.931 ± 0.028

Question: “Q5TH58 and related entries (UniProt Q9H6K1)” was tested. Which NP40-soluble protein abundance did it give?
Answer: 1.09 ± 0.027

Question: UniProt Q6NTF9 and related entries was tested. Which NP40-soluble protein abundance did it give?
Answer: 0.91 ± 0.04

Question: For UniProt Q6PD74 and related entries, which NP40-soluble protein abundance is on record?
Answer: 0.972 ± 0.087

Question: How did the NP40-soluble protein abundance turn out when UniProt Q5TDH0 and related entries was run?
Answer: 0.9594 ± 0.0062

Question: With UniProt Q5W0U4 and related entries as the target, how does the NP40-soluble protein abundance read?
Answer: 1.03 ± 0.04

Question: For UniProt Q5THK1 and related entries, which NP40-soluble protein abundance is on record?
Answer: 0.859 ± 0.09

Question: UniProt Q5M775 and related entries was tested. Which NP40-soluble protein abundance did it give?
Answer: 0.881 ± 0.038

Question: For ERAP2 (UniProt Q6P179), which NP40-soluble protein abundance is on record?
Answer: 0.932 ± 0.028

Question: Which NP40-soluble protein abundance does the source give for HSD17B12 (UniProt Q53GQ0) here?
Answer: 0.915 ± 0.016

Question: How did the NP40-soluble protein abundance turn out when UniProt Q5T0N5-3|Q5T0N5-4 was run?
Answer: 0.995 ± 0.013

Question: With UniProt Q6P2H3 and related entries as the target, how does the NP40-soluble protein abundance read?
Answer: 0.964 ± 0.044

Question: With UniProt Q6IAA8 as the target, how does the NP40-soluble protein abundance read?
Answer: 0.991 ± 0.037

Question: Which NP40-soluble protein abundance does the source give for UniProt Q5VZE5 here?
Answer: 1.02 ± 0.067

Question: For UniProt Q66K14 and related entries, which NP40-soluble protein abundance is on record?
Answer: 0.976 ± 0.021
